# Source: the supplement of paper PMC8104966
# The list shows a part of the results. Repeats in this data set agree poorly, so a single value says little.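 Fusion between ACE2-bearing and full-length-spike-bearing U2OS cells was measured by imaging as the percentage of nuclei with both cell types' fluorescent markers. An inhibitory hit is a non-toxic compound whose fusion z-score is below -3, more than three standard deviations beneath the plate's DMSO wells.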
# System: U2OS ACE2 x SARS-CoV-2 spike co-culture
# Experiment: cell-cell fusion (fraction fused) z-score vs plate DMSO control; higher = more fusion
# Conditions: 30 µM; 5 h; toxicity class: non-toxic, passed QC
row,SMILES,cell-cell fusion (z-score)
1,O=C(Nc1ccc(OC(F)(F)F)cc1)c1sccc1NCc1ccnc2ccccc12,inactive: 1.75
2,O=c1[nH]c2ccccc2c2ccccc12 [6(5H)-Phenanthridinone],inactive: -0.105
3,CC(C)[C@H](N)C(=O)OCCOCn1cnc2c(=O)[nH]c(N)nc21.Cl,inactive: 2.35
4,CCOc1ncc(S(=O)(=O)N2CCN(CC)CC2)cc1-c1nc(=O)c2nn(CCOC)c(CC)c2[nH]1.O=S(=O)(O)c1ccccc1 [Gisadenafil besylate salt],inactive: 0.751
5,CCOc1ncc(S(=O)(=O)N2CCN(CC)CC2)cc1-c1nc(=O)c2nn(CCOC)c(CC)c2[nH]1.O=S(=O)(O)c1ccccc1 [Gisadenafil],inactive: 2.47
6,O=c1c(O)c(-c2cc(O)c(O)c(O)c2)oc2cc(O)cc(O)c12,inactive: 2.05
7,O=c1c(O)c(-c2cc(O)c(O)c(O)c2)oc2cc(O)cc(O)c12 [Myricetin],inactive: 2.68
8,Cc1cccc(C)c1OCC(=O)N[C@@H](Cc1ccccc1)[C@@H](O)C[C@H](Cc1ccccc1)NC(=O)[C@H](C(C)C)N1CCCNC1=O [Lopinavir],active: -3.21
9,C[C@@H]1CC[C@@]2(NC1)O[C@H]1C[C@H]3C4CC=C5C[C@@H](O)CC[C@]5(C)C4CC[C@]3(C)C1[C@@H]2C (some centres undefined),inactive: 2.24
10,CC(=O)OCC(=O)[C@@]1(OC(C)=O)[C@@H](C)CC2C3C[C@H](F)C4=CC(=O)C=C[C@]4(C)[C@@]3(F)[C@@H](O)C[C@@]21C (some centres undefined),inactive: 2.48
11,Oc1ccnc(S)n1,inactive: -1.46
12,CC(=O)O[C@H]1CC[C@@]2(C)C(CC[C@]3(C)C2C(=O)C=C2[C@@H]4C[C@@](C)(C(=O)O)CC[C@]4(C)CC[C@]23C)C1(C)C (some centres undefined),inactive: 3.57
13,Cc1cc(=O)oc2cc(O)c(O)cc12,inactive: 1.21
14,C=CC(=O)Nc1cccc(Nc2nc(Nc3ccc(Oc4ccnc(C(=O)NC)c4)cc3)ncc2F)c1,inactive: -2.56
15,Nc1c(CC(=O)[O-])cccc1C(=O)c1ccc(Br)cc1.Nc1c(CC(=O)[O-])cccc1C(=O)c1ccc(Br)cc1.O.O.O.[Na+].[Na+] [Bromfenac sodium],inactive: 2.93
16,O=C(c1ccc(/C=C/c2n[nH]c3ccccc23)cc1)N1CCNCC1,inactive: -0.616
17,O=C1CCc2cc(OCCCCc3nnnn3C3CCCCC3)ccc2N1 [Cilostazol],inactive: 2.67
18,CCC(C)[C@H]1O[C@]2(C=C[C@@H]1C)C[C@@H]1C[C@@H](C/C=C(\C)[C@@H](OC3C[C@H](OC)C(O[C@H]4C[C@H](OC)[C@@H](O)[C@H](C)O4)[C@H](C)O3)[C@@H](C)/C=C/C=C3\CO[C@@H]4[C@H](O)C(C)=C[C@@H](C(=O)O1)[C@]34O)O2 (some centres undefined) [ABAMECTIN (avermectin B1a shown)],inactive: -2.11
19,COc1cc(O)c2c(=O)cc(-c3ccc(O)cc3)oc2c1,inactive: 1.91
20,COc1cccc(OC)c1OCCNCC1COc2ccccc2O1.Cl (centres undefined) [WB-4101 hydrochloride],inactive: 0.499
21,CCN(CC)CCCC(C)Nc1ccnc2cc(Cl)ccc12.O=P(O)(O)O.O=P(O)(O)O (centres undefined) [Chloroquine diphosphate],inactive: 0.645
22,Clc1ccc(COC(Cn2ccnc2)c2ccc(Cl)cc2Cl)cc1 (centres undefined) [Econazole],inactive: 1.78

# Some of the entries so far, with bars between the fields.
row | SMILES | cell-cell fusion (z-score)
1 | O=C(Nc1ccc(OC(F)(F)F)cc1)c1sccc1NCc1ccnc2ccccc12 | inactive: 1.75
2 | O=c1[nH]c2ccccc2c2ccccc12 [6(5H)-Phenanthridinone] | inactive: -0.105
3 | CC(C)[C@H](N)C(=O)OCCOCn1cnc2c(=O)[nH]c(N)nc21.Cl | inactive: 2.35
8 | Cc1cccc(C)c1OCC(=O)N[C@@H](Cc1ccccc1)[C@@H](O)C[C@H](Cc1ccccc1)NC(=O)[C@H](C(C)C)N1CCCNC1=O [Lopinavir] | active: -3.21
9 | C[C@@H]1CC[C@@]2(NC1)O[C@H]1C[C@H]3C4CC=C5C[C@@H](O)CC[C@]5(C)C4CC[C@]3(C)C1[C@@H]2C (some centres undefined) | inactive: 2.24
13 | Cc1cc(=O)oc2cc(O)c(O)cc12 | inactive: 1.21
14 | C=CC(=O)Nc1cccc(Nc2nc(Nc3ccc(Oc4ccnc(C(=O)NC)c4)cc3)ncc2F)c1 | inactive: -2.56
15 | Nc1c(CC(=O)[O-])cccc1C(=O)c1ccc(Br)cc1.Nc1c(CC(=O)[O-])cccc1C(=O)c1ccc(Br)cc1.O.O.O.[Na+].[Na+] [Bromfenac sodium] | inactive: 2.93
17 | O=C1CCc2cc(OCCCCc3nnnn3C3CCCCC3)ccc2N1 [Cilostazol] | inactive: 2.67
18 | CCC(C)[C@H]1O[C@]2(C=C[C@@H]1C)C[C@@H]1C[C@@H](C/C=C(\C)[C@@H](OC3C[C@H](OC)C(O[C@H]4C[C@H](OC)[C@@H](O)[C@H](C)O4)[C@H](C)O3)[C@@H](C)/C=C/C=C3\CO[C@@H]4[C@H](O)C(C)=C[C@@H](C(=O)O1)[C@]34O)O2 (some centres undefined) [ABAMECTIN (avermectin B1a shown)] | inactive: -2.11
20 | COc1cccc(OC)c1OCCNCC1COc2ccccc2O1.Cl (centres undefined) [WB-4101 hydrochloride] | inactive: 0.499

# (list continues)

row,SMILES,cell-cell fusion (z-score)
1,O=C(NC[C@H](O)CO)c1ccncc1Nc1ccc(I)cc1F,inactive: 1.2
2,COc1ccc(-c2cc(=O)c3c(OC)c(OC)c(OC)cc3o2)cc1OC,inactive: 2.11
3,Cc1cc(O)c2c(c1)C(=O)c1cccc(O)c1C2=O,inactive: 1.81
4,O=C(NCc1ccccc1)OCCO,inactive: 1.7
5,C[C@H](Cc1cc2c(c(C(N)=O)c1)N(CCCO)CC2)NCCOc1ccccc1OCC(F)(F)F [Silodosin],inactive: 2.48
6,Cl.N[C@@H]1C[C@H]1c1ccccc1 [Tranylcypromine (2-PCPA) hydrochloride],inactive: 2.06
7,CCCN1CCC[C@@H]2Cc3n[nH]cc3C[C@H]21.Cl [(-)-Quinpirole hydrochloride],inactive: 1.48
8,CC(=O)O[C@H]1Cc2ccccc2N(C(N)=O)c2ccccc21,active: -4.1
9,CC(=O)[C@@]1(O)CC[C@H]2[C@@H]3CCC4=CC(=O)CC[C@]4(C)[C@H]3CC[C@@]21C [Hydroxyprogesterone],inactive: 3.69
10,Cn1cnc2c1c(=O)[nH]c(=O)n2C [Theobromine],inactive: 1.88
11,CC(=O)NC(CS)C(=O)O (centres undefined),inactive: -0.0779
12,"Br.NC1CCc2cc(O)c(O)cc2C1 (centres undefined) [6,7-ADTN hydrobromide]",active: -3.54
13,COc1ccc2c(c1)OC[C@@H](Cc1ccc(OC)c(OC)c1)[C@@H]2O,inactive: 2.34
14,COc1cc2ncnc(Nc3ccc(F)c(Cl)c3)c2cc1NC(=O)/C=C/CN1CCCCC1 [Dacomitinib],inactive: -1.21
15,CCN(CC)CCNC(=O)c1cc(Br)c(N)cc1OC,inactive: 3.12
16,COc1ccc(C(=O)N2CCCC2=O)cc1 [Aniracetam],inactive: 3.22
17,Cc1cc2c(C(C)C)c(O)c(O)c(C=O)c2c(O)c1-c1c(C)cc2c(C(C)C)c(O)c(O)c(C=O)c2c1O,active: -3.86
18,COC(=O)c1c(OC)cc2c(c1C)Oc1c(Cl)c(O)c(Cl)c(C)c1C(=O)O2,inactive: 2.01
19,C#Cc1cccc(Nc2ncnc3cc(OCCOC)c(OCCOC)cc23)c1 [Erlotinib],inactive: 0.969
20,O=c1c(-c2ccc(O)cc2)coc2cc(O)cc(O)c12 [Genistein],inactive: 0.843
21,O=c1c(-c2ccc(O)cc2)coc2cc(O)cc(O)c12,inactive: 2.2
22,COc1cc2nccc(Oc3ccc(NC(=O)NC4CC4)c(Cl)c3)c2cc1C(N)=O [Lenvatinib],inactive: -0.711
